Test results published in the supplement of paper PMC7666118.
Some of the results follow.

Chains of the proteins cited; added tags and fusions are not shown. Lines headed by an entry give the natural chain unless they say otherwise; changes in a name come on top.
UniProt O43542: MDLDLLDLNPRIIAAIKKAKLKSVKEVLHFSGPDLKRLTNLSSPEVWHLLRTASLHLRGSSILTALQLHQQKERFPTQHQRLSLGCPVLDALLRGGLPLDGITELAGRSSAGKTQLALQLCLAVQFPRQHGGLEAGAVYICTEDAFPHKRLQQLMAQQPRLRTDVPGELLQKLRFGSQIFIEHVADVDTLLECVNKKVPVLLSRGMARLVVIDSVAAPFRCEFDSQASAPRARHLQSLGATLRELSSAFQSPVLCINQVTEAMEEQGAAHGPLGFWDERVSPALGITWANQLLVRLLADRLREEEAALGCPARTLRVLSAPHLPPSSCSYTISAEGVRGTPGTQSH
UniProt Q8WU90: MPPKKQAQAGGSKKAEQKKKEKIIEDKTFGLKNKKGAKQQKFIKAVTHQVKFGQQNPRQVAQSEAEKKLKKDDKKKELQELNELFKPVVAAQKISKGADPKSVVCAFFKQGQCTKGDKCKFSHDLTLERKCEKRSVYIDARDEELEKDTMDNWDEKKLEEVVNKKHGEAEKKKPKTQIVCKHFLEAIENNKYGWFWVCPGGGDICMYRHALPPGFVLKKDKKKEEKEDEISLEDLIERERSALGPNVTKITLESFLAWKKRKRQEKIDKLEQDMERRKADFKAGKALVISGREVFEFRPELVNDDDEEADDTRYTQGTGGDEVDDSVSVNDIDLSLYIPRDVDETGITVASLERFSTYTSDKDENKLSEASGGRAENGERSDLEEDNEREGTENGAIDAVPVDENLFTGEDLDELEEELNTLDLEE
UniProt P18887, whole entry: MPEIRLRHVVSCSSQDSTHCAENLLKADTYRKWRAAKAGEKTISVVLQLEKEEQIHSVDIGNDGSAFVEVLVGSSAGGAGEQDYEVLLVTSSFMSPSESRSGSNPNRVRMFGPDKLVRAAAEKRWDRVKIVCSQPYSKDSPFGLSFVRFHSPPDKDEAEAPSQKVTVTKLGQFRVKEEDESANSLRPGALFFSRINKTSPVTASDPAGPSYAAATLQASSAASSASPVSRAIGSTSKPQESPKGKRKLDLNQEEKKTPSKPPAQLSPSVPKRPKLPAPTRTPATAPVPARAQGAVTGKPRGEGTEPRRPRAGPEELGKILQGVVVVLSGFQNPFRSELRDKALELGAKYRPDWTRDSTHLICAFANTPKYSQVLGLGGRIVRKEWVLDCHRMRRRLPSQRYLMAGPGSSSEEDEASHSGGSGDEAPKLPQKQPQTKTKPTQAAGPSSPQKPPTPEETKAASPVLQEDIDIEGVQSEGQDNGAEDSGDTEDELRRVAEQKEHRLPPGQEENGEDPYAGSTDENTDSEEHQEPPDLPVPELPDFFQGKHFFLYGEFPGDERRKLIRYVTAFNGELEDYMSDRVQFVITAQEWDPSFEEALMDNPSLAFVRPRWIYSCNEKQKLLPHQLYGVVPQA
UniProt Q9Y3S2: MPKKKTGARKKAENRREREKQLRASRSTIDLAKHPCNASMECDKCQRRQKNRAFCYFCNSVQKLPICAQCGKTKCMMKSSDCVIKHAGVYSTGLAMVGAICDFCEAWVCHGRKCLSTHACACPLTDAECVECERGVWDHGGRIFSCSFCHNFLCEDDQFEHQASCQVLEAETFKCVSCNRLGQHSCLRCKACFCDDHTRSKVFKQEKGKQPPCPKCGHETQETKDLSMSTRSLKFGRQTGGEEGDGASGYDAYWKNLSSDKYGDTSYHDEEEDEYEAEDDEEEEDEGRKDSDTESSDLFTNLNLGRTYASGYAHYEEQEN
UniProt P61981: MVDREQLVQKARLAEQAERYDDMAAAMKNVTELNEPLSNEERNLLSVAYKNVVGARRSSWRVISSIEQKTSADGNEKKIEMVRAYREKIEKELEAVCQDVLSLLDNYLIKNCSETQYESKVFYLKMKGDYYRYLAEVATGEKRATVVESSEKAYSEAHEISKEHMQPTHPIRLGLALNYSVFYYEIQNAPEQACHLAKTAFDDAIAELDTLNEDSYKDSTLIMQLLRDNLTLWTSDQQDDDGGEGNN
UniProt Q5JSH3: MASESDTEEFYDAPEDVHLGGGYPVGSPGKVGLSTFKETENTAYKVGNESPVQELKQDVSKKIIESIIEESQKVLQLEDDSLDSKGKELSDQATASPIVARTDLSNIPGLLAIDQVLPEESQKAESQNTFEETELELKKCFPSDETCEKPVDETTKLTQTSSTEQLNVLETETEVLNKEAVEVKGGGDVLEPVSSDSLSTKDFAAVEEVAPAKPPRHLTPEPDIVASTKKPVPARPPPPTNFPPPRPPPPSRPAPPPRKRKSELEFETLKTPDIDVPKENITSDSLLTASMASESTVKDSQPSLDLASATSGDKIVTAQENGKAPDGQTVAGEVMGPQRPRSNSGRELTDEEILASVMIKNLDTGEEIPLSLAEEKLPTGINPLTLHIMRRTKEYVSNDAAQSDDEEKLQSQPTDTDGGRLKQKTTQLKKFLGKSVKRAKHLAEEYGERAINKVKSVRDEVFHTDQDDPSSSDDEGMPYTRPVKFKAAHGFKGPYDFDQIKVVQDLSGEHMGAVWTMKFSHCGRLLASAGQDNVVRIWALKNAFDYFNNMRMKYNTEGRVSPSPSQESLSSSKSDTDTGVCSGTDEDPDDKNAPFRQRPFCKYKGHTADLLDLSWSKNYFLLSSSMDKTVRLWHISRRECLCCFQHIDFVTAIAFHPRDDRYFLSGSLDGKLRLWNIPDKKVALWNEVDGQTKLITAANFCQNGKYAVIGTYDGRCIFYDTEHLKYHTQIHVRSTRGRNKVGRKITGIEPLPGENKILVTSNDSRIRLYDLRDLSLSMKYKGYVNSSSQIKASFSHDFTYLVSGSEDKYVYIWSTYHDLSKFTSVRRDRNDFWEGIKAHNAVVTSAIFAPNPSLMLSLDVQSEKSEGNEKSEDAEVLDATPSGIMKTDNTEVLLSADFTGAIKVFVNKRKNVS
UniProt Q8WV99: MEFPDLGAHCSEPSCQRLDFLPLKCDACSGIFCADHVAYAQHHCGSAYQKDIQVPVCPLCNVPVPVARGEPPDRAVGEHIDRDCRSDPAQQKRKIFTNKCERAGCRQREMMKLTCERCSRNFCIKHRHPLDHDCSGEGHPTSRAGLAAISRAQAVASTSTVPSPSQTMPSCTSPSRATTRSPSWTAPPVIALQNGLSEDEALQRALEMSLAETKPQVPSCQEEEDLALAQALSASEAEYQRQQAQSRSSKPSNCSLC
UniProt Q5HYK9: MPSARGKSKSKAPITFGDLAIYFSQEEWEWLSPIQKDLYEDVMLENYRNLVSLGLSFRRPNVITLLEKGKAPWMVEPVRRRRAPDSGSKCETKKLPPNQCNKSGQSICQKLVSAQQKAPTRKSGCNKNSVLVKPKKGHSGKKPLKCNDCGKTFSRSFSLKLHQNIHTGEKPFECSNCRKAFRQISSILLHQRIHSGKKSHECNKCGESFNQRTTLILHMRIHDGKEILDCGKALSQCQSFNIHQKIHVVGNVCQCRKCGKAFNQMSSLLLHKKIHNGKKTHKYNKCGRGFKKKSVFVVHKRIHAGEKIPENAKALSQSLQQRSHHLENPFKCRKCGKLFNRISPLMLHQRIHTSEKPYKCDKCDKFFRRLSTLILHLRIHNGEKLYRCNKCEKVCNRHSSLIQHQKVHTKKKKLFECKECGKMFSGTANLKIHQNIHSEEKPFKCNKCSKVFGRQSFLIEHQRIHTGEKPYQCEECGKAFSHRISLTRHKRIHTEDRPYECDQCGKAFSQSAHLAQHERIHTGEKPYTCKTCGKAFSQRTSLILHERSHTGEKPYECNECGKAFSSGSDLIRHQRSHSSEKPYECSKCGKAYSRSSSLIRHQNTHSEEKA
UniProt P17028: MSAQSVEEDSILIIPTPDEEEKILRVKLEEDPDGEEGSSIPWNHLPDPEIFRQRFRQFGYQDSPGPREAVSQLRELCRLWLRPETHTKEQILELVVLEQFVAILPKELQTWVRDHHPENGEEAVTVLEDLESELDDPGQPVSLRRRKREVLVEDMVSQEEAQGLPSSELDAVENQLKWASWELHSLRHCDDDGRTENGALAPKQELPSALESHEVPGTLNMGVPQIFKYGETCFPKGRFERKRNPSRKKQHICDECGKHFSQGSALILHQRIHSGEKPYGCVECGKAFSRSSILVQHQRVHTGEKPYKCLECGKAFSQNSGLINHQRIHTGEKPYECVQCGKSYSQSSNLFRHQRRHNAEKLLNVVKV
UniProt O95070: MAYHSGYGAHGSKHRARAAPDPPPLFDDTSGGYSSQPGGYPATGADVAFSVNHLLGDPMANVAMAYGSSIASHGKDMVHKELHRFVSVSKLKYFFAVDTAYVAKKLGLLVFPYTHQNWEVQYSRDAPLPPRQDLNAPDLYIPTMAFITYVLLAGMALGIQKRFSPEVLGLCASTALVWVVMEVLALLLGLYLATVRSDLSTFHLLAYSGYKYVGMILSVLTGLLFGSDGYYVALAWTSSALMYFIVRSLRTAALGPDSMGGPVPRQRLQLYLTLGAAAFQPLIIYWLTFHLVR
UniProt Q9H1Z4: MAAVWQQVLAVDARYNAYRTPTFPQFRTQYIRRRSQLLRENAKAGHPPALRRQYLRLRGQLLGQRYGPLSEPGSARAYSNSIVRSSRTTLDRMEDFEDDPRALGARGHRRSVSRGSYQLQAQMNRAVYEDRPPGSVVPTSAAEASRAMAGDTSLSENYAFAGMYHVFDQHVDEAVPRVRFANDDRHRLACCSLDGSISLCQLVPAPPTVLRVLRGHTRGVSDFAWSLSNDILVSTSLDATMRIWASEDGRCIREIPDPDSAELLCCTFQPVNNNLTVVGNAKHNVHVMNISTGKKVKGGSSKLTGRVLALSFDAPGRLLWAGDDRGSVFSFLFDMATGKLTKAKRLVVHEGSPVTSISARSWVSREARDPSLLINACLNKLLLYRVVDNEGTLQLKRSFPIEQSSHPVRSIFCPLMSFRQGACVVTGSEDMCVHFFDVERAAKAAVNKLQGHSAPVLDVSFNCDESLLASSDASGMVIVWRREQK
UniProt O95785: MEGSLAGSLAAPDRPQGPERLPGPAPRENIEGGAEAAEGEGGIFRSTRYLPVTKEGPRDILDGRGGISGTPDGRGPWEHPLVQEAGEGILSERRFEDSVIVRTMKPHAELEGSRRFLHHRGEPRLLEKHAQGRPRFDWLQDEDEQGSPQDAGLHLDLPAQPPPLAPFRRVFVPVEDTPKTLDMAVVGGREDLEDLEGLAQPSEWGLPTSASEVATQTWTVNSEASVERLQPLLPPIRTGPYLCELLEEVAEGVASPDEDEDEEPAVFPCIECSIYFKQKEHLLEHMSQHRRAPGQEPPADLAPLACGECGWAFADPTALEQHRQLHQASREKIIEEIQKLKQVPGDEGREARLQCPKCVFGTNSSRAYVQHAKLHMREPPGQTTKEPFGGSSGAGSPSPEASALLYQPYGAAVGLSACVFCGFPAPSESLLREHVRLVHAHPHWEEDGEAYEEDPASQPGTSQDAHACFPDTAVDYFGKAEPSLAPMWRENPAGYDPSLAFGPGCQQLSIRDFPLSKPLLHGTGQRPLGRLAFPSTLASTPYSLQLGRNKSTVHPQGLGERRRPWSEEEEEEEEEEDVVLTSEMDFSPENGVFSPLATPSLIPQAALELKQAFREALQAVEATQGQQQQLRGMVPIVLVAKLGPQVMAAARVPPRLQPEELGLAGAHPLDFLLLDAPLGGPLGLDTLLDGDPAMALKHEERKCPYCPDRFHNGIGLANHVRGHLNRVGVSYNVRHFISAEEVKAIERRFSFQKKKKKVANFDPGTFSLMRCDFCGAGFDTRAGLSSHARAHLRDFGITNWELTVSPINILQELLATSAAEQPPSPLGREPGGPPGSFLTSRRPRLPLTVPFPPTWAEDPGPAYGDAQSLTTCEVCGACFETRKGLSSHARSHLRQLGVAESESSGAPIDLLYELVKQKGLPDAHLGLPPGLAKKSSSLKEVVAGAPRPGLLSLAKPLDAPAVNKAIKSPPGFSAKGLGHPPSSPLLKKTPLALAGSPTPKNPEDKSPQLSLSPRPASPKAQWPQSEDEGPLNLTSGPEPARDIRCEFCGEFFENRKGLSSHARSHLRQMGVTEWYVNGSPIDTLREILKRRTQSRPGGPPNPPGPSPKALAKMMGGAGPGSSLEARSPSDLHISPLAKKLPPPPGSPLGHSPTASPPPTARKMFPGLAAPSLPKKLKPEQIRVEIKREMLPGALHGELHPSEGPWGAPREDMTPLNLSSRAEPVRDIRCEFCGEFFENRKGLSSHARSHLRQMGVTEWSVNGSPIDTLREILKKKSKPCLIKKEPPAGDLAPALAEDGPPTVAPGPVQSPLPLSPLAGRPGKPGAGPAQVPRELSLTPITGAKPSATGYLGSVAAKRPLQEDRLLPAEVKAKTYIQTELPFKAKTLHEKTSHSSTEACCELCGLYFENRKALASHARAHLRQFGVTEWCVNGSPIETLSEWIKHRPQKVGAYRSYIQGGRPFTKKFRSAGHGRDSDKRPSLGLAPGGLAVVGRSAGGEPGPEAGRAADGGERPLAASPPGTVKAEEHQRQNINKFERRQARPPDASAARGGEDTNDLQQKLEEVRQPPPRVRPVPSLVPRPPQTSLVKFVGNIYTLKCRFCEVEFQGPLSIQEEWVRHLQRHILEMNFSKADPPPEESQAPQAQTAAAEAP

Compound: COc1ccc(Cn2ccc3cc(C)c(C(=O)NO)cc32)cc1
Assay: dose-dependent thermal stabilisation call (2D-TPP, DLPTP, 10% FDR) (binary (1 = stabilised)); higher = stabilised by the compound
Settings: system: HL-60 intact cells; concentration range 0.04-10 µM
Method: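 2D thermal proteome profiling in intact HL-60 cells treated with BRD-3811 (0, 0.04, 0.29, 2, 10 uM) for 90 min at 37 C, then heated 3 min at one of 12 temperatures (42-63.9 C). Soluble protein was quantified by TMT10 MS. The value is the DLPTP call of the paper: dose-dependent thermal stabilisation over all temperatures at 10% FDR (F-test of a dose-response against a flat model); one experiment, one call per tested protein.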

Row | Target | dose-dependent thermal stabilisation call
1 | YTHDC2 (UniProt Q9H6S0) | inactive: 0
2 | XRCC3 (UniProt O43542) | inactive: 0
3 | WDR3 (UniProt Q9UNX4) | inactive: 0
4 | ZNF207 (UniProt O43670) | inactive: 0
5 | WDR6 (UniProt Q9NNW5) | inactive: 0
6 | ZC3H15 (UniProt Q8WU90) | inactive: 0
7 | ZNF629 (UniProt Q9UEG4) | inactive: 0
8 | XRCC1 (UniProt P18887) | inactive: 0
9 | YTHDF1 (UniProt Q9BYJ9) | inactive: 0
10 | ZNF330 (UniProt Q9Y3S2) | inactive: 0
11 | ZEB2 (UniProt O60315) | inactive: 0
12 | YWHAG (UniProt P61981) | inactive: 0
13 | XPOT (UniProt O43592) | inactive: 0
14 | WDTC1 (UniProt Q8N5D0) | inactive: 0
15 | WDR37 (UniProt Q9Y2I8) | inactive: 0
16 | ZFYVE19 (UniProt Q96K21) | inactive: 0
17 | ZNF131 (UniProt P52739) | inactive: 0
18 | WDR44 (UniProt Q5JSH3) | inactive: 0
19 | ZNF516 (UniProt Q92618) | inactive: 0
20 | ZFAND2B (UniProt Q8WV99) | inactive: 0

Row | Target | dose-dependent thermal stabilisation call
21 | ZNF667 (UniProt Q5HYK9) | inactive: 0
22 | XK (UniProt P51811) | inactive: 0
23 | YME1L1 (UniProt Q96TA2) | inactive: 0
24 | ZNF24 (UniProt P17028) | inactive: 0
25 | XPNPEP3 (UniProt Q9NQH7) | inactive: 0
26 | YIF1A (UniProt O95070) | inactive: 0
27 | ZC3H11A (UniProt O75152) | inactive: 0
28 | XIAP (UniProt P98170) | inactive: 0
29 | ZNF787 (UniProt Q6DD87) | inactive: 0
30 | WDR13 (UniProt Q9H1Z4) | inactive: 0
31 | ZFP36L2 (UniProt P47974) | inactive: 0
32 | WDR8 (UniProt Q9P2S5) | inactive: 0
33 | ZNF768 (UniProt Q9H5H4) | inactive: 0
34 | ZNF280C (UniProt Q8ND82) | inactive: 0
35 | WIZ (UniProt O95785) | inactive: 0
36 | XRCC2 (UniProt O43543) | inactive: 0
37 | ZFPL1 (UniProt O95159) | inactive: 0
38 | XPO7 (UniProt Q9UIA9) | inactive: 0
39 | WDR61 (UniProt Q9GZS3) | inactive: 0
40 | YIPF6 (UniProt Q96EC8) | inactive: 0

2 records drawn at random from the list so far, as already listed:
Row | Target | dose-dependent thermal stabilisation call
23 | YME1L1 (UniProt Q96TA2) | inactive: 0
32 | WDR8 (UniProt Q9P2S5) | inactive: 0
